Record: PubChem BioAssay AID1259424 (University of Nebraska Medical Center, 2018)
Assay: 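Seek colon cancer survival genes behaving like KSR1, using a six-gene signature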 (primary screen). System: human HCT116 colon cancer cells. Reagent: siRNA pool against human genes, 50 nM. Measured: 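Six signature mRNAs by branched-DNA multiplex assay, scaled to two housekeeping genes and non-targeting median, log2; matched to mean KSR1 knockdown profile by Pearson correlation and euclidean distance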. Reading the numbers: mean correlation with KSR1 profile: higher = expression change more like KSR1 knockdown; mean distance from KSR1 profile: higher = expression change less like KSR1 knockdown.
The whole screen tested about 14,000 reagents; shown is a part drawn at random. 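Higher correlation or smaller distance means closer resemblance to KSR1 loss; control wells, including KSR1 knockdowns, recur on many plates.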 Not all columns of the deposit are shown. Not stated in the record: the time to read-out.

target gene	mean correlation with KSR1 profile	mean distance from KSR1 profile
WDR44	-0.311	2.88
THSD1	-0.23	2.67
CCDC186	0.325	1.55
EXOC7	-0.396	2.37
HMGB1	0.466	1.88
MZB1	-0.394	2.46
POPDC3	0.397	2.71
RPL10	-0.72	6.29
SLC16A4	-0.119	2.78
MBD2	0.609	1.2
ZSWIM8	0.169	1.66
MKI67	0.416	2.06
NBPF1	-0.0349	3.81
FTCD	-0.00651	0.936
USP6NL	-0.33	2.28
TGFB3	-0.487	2.8
FCGR3A	0.236	2.79
ZNHIT2	-0.151	1.78
FBXO7	-0.103	2.04
DSG2	-0.0706	1.97
GABRG2	-0.0682	1.99
ANGPT1	-0.411	3.37
DLGAP4	-0.738	2.49
RAD51C	0.512	1.44
CEMIP2	-0.463	2.27
NOL4	-0.53	1.72

Next part; the last 3 above are carried over.
target gene	mean correlation with KSR1 profile	mean distance from KSR1 profile
RAD51C	0.512	1.44
CEMIP2	-0.463	2.27
NOL4	-0.53	1.72
PTENP1	-0.152	1.83
CCDC88A	0.637	0.984
MRPL32	-0.227	1.97
APBA1	-0.245	3.69
ISL2	-0.911	1.98
LFNG	-0.329	2.88
AZGP1	-0.155	3.14
ENPP2	0.278	2.51
CSRP3	-0.581	2.89
NT5E	-0.264	2.87
IFNG	0.708	0.759
ARIH2	-0.0493	1.1
CREB3L3	0.211	4.55
WDR83	0.516	2.01
FZD9	-0.208	3.5
BAD	0.827	1.84
MORN1	0.714	1.19
EAF1	-0.00208	3.72
LUM	0.438	0.874
MUC2	0.847	2.06
WASHC4	-0.571	4.22
XPO7	0.312	2.44
TFE3	0.477	1.17
ZFAT	-0.32	1.75
